## Microarray screen: hit calls

From ROBIN, a set of small-molecule microarray screens (doi:10.1002/anie.202211358).

Targets (5′ to 3′):
TPP: TPP riboswitch RNA three-way junction, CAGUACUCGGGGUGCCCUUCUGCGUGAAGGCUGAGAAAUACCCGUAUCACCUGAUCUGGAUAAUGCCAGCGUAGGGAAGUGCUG. About 24,000 compounds screened, about 160 hits.
PreQ1: PreQ1 riboswitch RNA pseudoknot, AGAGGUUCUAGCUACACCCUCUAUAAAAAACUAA. From B. subtilis. About 24,000 compounds screened, about 170 hits.
SAM-II: SAM-II riboswitch RNA pseudoknot, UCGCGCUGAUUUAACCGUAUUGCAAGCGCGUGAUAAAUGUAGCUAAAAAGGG. About 21,000 compounds screened, about 200 hits.

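Compounds were printed on reactive glass slides in duplicate spots, a dye-labelled oligonucleotide was laid over them, and the fluorescence left after washing was read. For the PreQ1, TPP and SAM-II riboswitches the laboratory earlier reported (doi:10.1038/s41467-019-09493-3) 1 µM RNA, 2 h, and a rule that included a mean Z-score above 3 (spot signal-to-noise against the whole library), a score well above that on a control array, and duplicate spots agreeing (coefficient of variation under 100). The data file gives only the calls; its cut-offs may differ, and compounds hitting several targets are kept. These are primary screening calls, not affinities; a compound without a hit may have attached poorly or may still bind in solution.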 “Y” means called a hit, “N” means screened and not called a hit. The compounds are a random part of those screened. A dash means that no call is listed here.

structure,TPP,PreQ1,SAM-II
Oc1ccccc1-c1nc2c3ccccc3c3ccccc3c2[nH]1,N,N,N
Cc1cc2cc(CNC(=O)[C@@H]3C[C@@H](NC(=O)c4cccc(C#N)c4)CN3)ccc2[nH]1,N,N,N
CCc1c(C(=O)C(N)=O)c2c(OCC(=O)O)cccc2n1Cc1ccccc1,N,N,N
Cc1ccc(CN2CCN(C(=O)Cc3c(C)nc(N)nc3C)CC2=O)cc1,N,N,N
CCc1nc2nc(C)cc(Nc3ccc(Br)cc3F)n2n1,N,N,N
C=CCNc1nc(-c2c[nH]c3ccccc23)cs1,N,N,-
Cc1ccc(C(C)C)c(OCC(O)CN2CCCCC2)c1 (stereo not given),N,N,N
COC(=O)c1c(-c2ccc(Cl)cc2)noc1NC1CCCCCC1,N,N,N
O=C(CCc1ccco1)N1C[C@@H](CN2CCOCC2)[C@@H](CO)C1,N,N,N
CCC(C)NC(=O)c1ccc2nc(N)sc2c1 (stereo not given),N,N,N
Nc1cc([N+](=O)[O-])ccc1Nc1ccc(O)cc1,N,N,N
Nc1ncnc2c1ncn2C1OC(COS(N)(=O)=O)C(O)C1O (stereo not given),N,N,N
O=S1(=O)C[C@H](NC2CCCCC2)[C@@H](S(=O)(=O)c2ccccc2)C1,N,N,-
COc1ccc(-c2nc3c(C)cccc3cc2CN2CCC[C@@H]2CO)cc1OC,N,N,N
CC(C)c1ccc(C2C(C#N)=C(N)Oc3cc4c(cc32)OCO4)cc1 (stereo not given),N,N,N
CSCc1ccc(N2CCC(N3CCC(O)CC3)CC2)nc1,N,N,N
COc1cc(C2CC(=O)Nc3nc(N)[se]c32)cc2c1OCO2 (stereo not given),N,N,N
COc1cnc(SC)nc1Nc1ccc(C#N)cc1,N,N,N
O=C(c1cccc(-c2ncc[nH]2)c1)N1C[C@@H](CN2CCOCC2)[C@@H](CO)C1,N,N,N
O=C(Nc1ccc(Cl)c(Cl)c1)c1ccc(Cl)c(Cl)c1,N,N,N
OC1(CNCc2ccccc2-n2cccn2)CCNC1 (stereo not given),N,N,N
CC(C)Cc1ccc(CN2CCCC(Nc3nccc(N)n3)C2)cc1 (stereo not given),N,N,N
CC12CN3CC(C)(CN(C1)C3c1ccco1)C2N (stereo not given),N,N,N
COc1ccc(NC(=O)c2sc3nc4c(cc3c2N)CCCC4)cc1OC,N,N,N
CC(=O)c1cccc(NC2c3ccccc3C(=O)N2c2cc(C)ccn2)c1 (stereo not given),N,N,N
Cc1nnc(CNCc2csc(C34CC5CC(CC(C5)C3)C4)n2)o1,N,N,N
COCCNc1oc(-c2ccc(S(=O)(=O)N(C)C)cc2)nc1C#N,N,N,-
COc1ccccc1N1CCN(C(=O)c2cc(N)[nH]n2)CC1=O,N,N,N
CCNC(=O)[C@@H]1C[C@H](NC(=O)c2ccc[nH]2)CN1C(=O)[C@H]1CC[C@@H](O)CC1,N,N,N
CCCc1ccc(OC(C)c2nc(-c3nonc3N)no2)cc1 (stereo not given),N,N,N
O=C(O)c1ccc(Nc2ncnc3ccc(Br)cc23)cc1,N,N,N
CO[C@H]1C[C@@H](O)C12CCN(Cc1cccc(OC(F)(F)F)c1)CC2,N,N,N
CNCC(=O)N1CCC2(CC1)CN(CCOc1ccccc1)C(=O)O2,N,N,N
C=CC1=C(C(=O)O)N2C(=O)[C@@H](NC(=O)C(=NO)c3csc(N)n3)[C@H]2SC1,N,N,N
NCCNC(=O)c1nc(Cn2cc(I)cn2)no1,N,N,N
CCCc1nnc(N2C[C@H]3COc4ccccc4C[C@@]3(CO)C2)s1,N,N,N
C[C@]12CC[C@H](O)CC1=CC[C@@H]1[C@H]2CC[C@]2(C)C(c3cccnc3)=CC[C@H]12,N,N,N
CCN(CC)CCCNc1ncnc2sc3c(c12)CCC(C)C3 (stereo not given),N,N,N
Cc1ccc2nc(C(=O)O)cc(Nc3ccc(C)c(F)c3)c2c1,N,N,N
CC(C)CC1CC(C)(c2csc(Nc3ccccc3)n2)OC1=O (stereo not given),N,N,N
CN(C)C1CCN(C(=O)c2ccc(NC(=O)Nc3nc(N4CCOCC4)nc(N4CCOCC4)n3)cc2)CC1,N,N,N
CCN1C(=O)C(Cc2nc3ccccc3c(=O)n2CCCO)c2cc(Br)ccc21 (stereo not given),N,N,-
CC(C)Cc1nc2sc3c(NCCCO)ncnc3c2c2c1COC(C)(C)C2,N,N,N
CCN(Cc1noc(CC(C)C)n1)C(=O)CC1CNCCO1 (stereo not given),N,N,N
Fc1ccccc1C(NC1CCCCC1)c1nnc(-c2ccccc2)o1 (stereo not given),N,N,N
CCn1c(N)nc2cc(C(=O)NCc3csc(N4CCCC4)n3)cnc21,N,N,N
CC1=CC(C)(C)Nc2ccc(OC(=O)COc3ccccc3[N+](=O)[O-])cc21,N,N,N
Cc1nccn1CCC1CCN(C2CCC3(CCNCC3)CC2)CC1,N,N,N
CN1CCN(C(=O)O[C@H]2c3nccnc3C(=O)N2c2ccc(Cl)cn2)CC1,N,N,N
CCc1ccc(OCC(O)Cn2c(C3CC(=O)N(c4ccccc4)C3)nc3ccccc32)cc1 (stereo not given),N,N,-
Cc1cc(NCCCN(C)C)n2ncc(-c3ccc(Cl)cc3)c2n1,N,N,-

Repeated from the top, 6 entries:

| structure | TPP | PreQ1 | SAM-II |
|---|---|---|---|
| `Oc1ccccc1-c1nc2c3ccccc3c3ccccc3c2[nH]1` | N | N | N |
| `Cc1cc2cc(CNC(=O)[C@@H]3C[C@@H](NC(=O)c4cccc(C#N)c4)CN3)ccc2[nH]1` | N | N | N |
| `CCc1c(C(=O)C(N)=O)c2c(OCC(=O)O)cccc2n1Cc1ccccc1` | N | N | N |
| `Cc1ccc(CN2CCN(C(=O)Cc3c(C)nc(N)nc3C)CC2=O)cc1` | N | N | N |
| `CCc1nc2nc(C)cc(Nc3ccc(Br)cc3F)n2n1` | N | N | N |
| `C=CCNc1nc(-c2c[nH]c3ccccc23)cs1` | N | N | - |